# Library screening results

Source: ChEMBL document CHEMBL3988442, “University of Dundee, Small-Polar-MMV Screening Library” (2021).

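Viability assay of Plasmodium falciparum sporozoites; the read-out is not stated. The concentration is filed as 10 mM, unlikely as a test dose, so the dose is not known. Higher reads as lower viability (inferred: compounds with an IC50 in retests scored well above the rest). Strong results were mostly tested again. Of about 34,000 compounds tested this way, about 280 (0.84%) reached 50% or more in at least one test.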

Each number is a percent effect as filed.
The controls that fix the scale are not given in the record; negative values are as filed.
Compounds were drawn at random from those tested, without regard to their results.

O=C(O)C(F)(F)F.[H][C@@]12CCN(c3cccnc3)C[C@]1([H])CN(C(=O)c1cccn1C)C2 read 2.862%.
O=C(Cn1cc(-c2ccccc2)cn1)NC(C1CC1)C1CC1 read 7.099%.
Cc1ncc(CNC(=O)NCc2c(F)cccc2OC(F)F)s1 read -65.66%.
Cc1ncc(CN(C)C)c(C2CCCN2c2ncccn2)n1 (configuration not stated) read -3.06%.
COc1cccc(-n2nnc(C(=O)N3CCN(C)CC3C)c2C)c1 (configuration not stated) read 18.04%.
COc1ccc(OC)c(CN(C)c2ncc(S(N)(=O)=O)s2)c1 read -1.829%.
COCCC(=O)N1CCN(CC2CC2)c2ccccc21 read 19.15%.
CSCCC(=O)N1CCCC1c1ccsc1 (configuration not stated) read 13.44%.
c1ccc(Cn2ccnc2CNCC2CCCN2c2cccnn2)cc1 (configuration not stated) read 14.82%.
CC(NCC(=O)NCC(=O)Nc1ccc(F)cc1)c1cccs1 (configuration not stated) read 0.1791%.
COC1CN(C(=O)CC2CCCC2)CCC(=O)N(C)c2ccccc21 (configuration not stated) read -56.4%.
[H][C@]12CC[C@]([H])(CC(=O)N(C)C1)N2C(=O)c1cc2ccccc2[nH]c1=O read -2.163%.
CC(C)[C@H]1CN(CCCO)C[C@@H]1NC(=O)CCC(F)(F)F read -10.92%.
O=C(NCc1cccnc1)Nc1cc(C(F)(F)F)c[nH]c1=O read 20.83%.
Cc1cc(N(C)C)nc(C2CCCNC2)n1.Cl (configuration not stated) read 3.559%.
O=C(N[C@@H]1CN(Cc2c[nH]nc2-c2ccccc2)C[C@H]1O)c1cc[nH]n1 read 3.82%.
O=C(O)C(F)(F)F.O=C(O)C(F)(F)F.[H][C@@]12CN(Cc3nccs3)C[C@H](C(=O)N3CCCCO3)[C@]1([H])CCO2 read 0.08681%.
O=C(c1nc2sccn2c1-c1ncc[nH]1)N1CCCCC1 read -12.91%.
CCN(C)C(=O)Cn1c(-c2ccco2)nn(-c2ccccc2OC)c1=O read -11.23%.
CCc1nccn1C1CCCN(C(=O)c2cc3nc(C)ccc3o2)C1 (configuration not stated) read 2.24%.
O=C(NCCCN1CCOCC1)c1ccn(-c2ccc3ccccn23)n1.O=C(O)C(F)(F)F read 5.481%.
O=S(=O)(NCCn1ccc(-c2ccccn2)n1)C1CCCCC1 read 4.924%.
Nc1nc(SCc2ccc3c(c2)OCO3)ns1 read -16.63%.
CCN(Cc1cccc(F)c1)c1ccc2nnnn2n1 read 1.001%.
CC(C)(C)Nc1c(C2CCN(C(=O)C(C)(C)C)CC2)nc2ccccn12 read -1.457%.
CC[C@H](C)[C@H](N)C(=O)N1CC(=O)c2sc(Nc3ccc(F)cc3)nc2C1 read 13.46%.
Cl.c1cn(-c2cncc(C3CCNCC3)n2)cn1 read 11.7%.
CC(NC(=O)N(C)Cc1ccncc1)c1nncn1C (configuration not stated) read -14.78%.
CCNc1cc2c(nn1)CCN(C(=O)c1cc3nc(C)ccc3o1)C2 read -23.28%.
COc1c(C2CCCN2Cc2noc(C)n2)c(C)nn1C (configuration not stated) read 14.87%.
Cc1cnn(C2CCCN(C(=O)c3ccc(-n4cccn4)nc3)C2)c1 (configuration not stated) read -8.718%.
[H][C@@]12CC[C@@](O)(c3ccc(C)cn3)[C@]1([H])CN(Cc1cccnc1)C2 read 14.39%.
Cc1cnn(C2CN(Cc3nc(-c4ccccn4)no3)C2)c1 read 17.11%.
O=C(c1ccnn1-c1ccc2ccccn12)N1CCCC1 read 5.592%.
c1csc(-c2nc(CN3CCn4c(nnc4C4CC4)C3)co2)c1 read -21.81%.
Cc1nn(C)c(N(C)C)c1CNC1CCOc2ccccc21 (configuration not stated) read -0.0993%.
CCn1nnc2c1C(COCCN(C)C)CN(Cc1ccco1)C2.O=C(O)C(F)(F)F.O=C(O)C(F)(F)F (configuration not stated) read 1.04%.
CC(C)c1nn(C)c(N(C)C)c1CNCC(O)c1ccccc1 (configuration not stated) read -5.27%.
Cc1cnn(CC2CCCN2C(=O)c2n[nH]c3ccccc23)c1 (configuration not stated) read 4.301%.
CCc1nc(CN2CCCN(C(=O)C(C)n3cncn3)CC2)cs1 (configuration not stated) read -10.14%.
CCOCC(=O)N1CCC2(CC1)CN(Cc1cccnc1)C(=O)CO2 read 7.762%.
CN1CC(Oc2ccccc2)=NC(SCC(=O)Nc2ccccc2Cl)=N1 read 0.2176%.
CC(=O)N1CCN(c2ccc3ccc(C(=O)NC4CCCC4)cn23)CC1 read -4.944%.
[H][C@@]12CCN(C(=O)c3occc3C)C[C@@]1([H])O[C@@H](c1nnc(C3CC3)o1)C2 read 8.347%.
CCC(C)NS(=O)(=O)c1ccc(/C=C\c2onc(C)c2NC(C)=O)cc1 (configuration not stated) read -6.356%.
Cc1csc(N2CCN(Cc3cnc(C)s3)CC2C)n1 (configuration not stated) read -2.952%.
O=C(CCNc1ncccn1)Nc1cc(C(F)(F)F)c[nH]c1=O read -11.89%.
c1cnc(N2CCCC3(CCN(Cc4ccncc4)C3)C2)nc1 (configuration not stated) read 7.771%.
CC(C)Cn1cc(NC(=O)N2CCCC2)cn1 read -0.3265%.
Cc1ncsc1C(=O)NC1CCN(CCC(=O)Nc2ccccc2)CC1 read 4.937%.
CCc1n[nH]c(C2CN(Cc3csc(C4CCCC4)n3)CCO2)n1 (configuration not stated) read -8.102%.
O=C(O)C(F)(F)F.[H][C@@]12CN(Cc3c(C)noc3C)C[C@]1([H])CC(F)(F)C2 read -7.972%.
COc1cccc(-c2ncc3c(n2)N(C)CCN(CCN(C)C)C3=O)c1 read 28.03%.
COc1cc(OC)cc(C(=O)NCc2nn(C)c3c2COCC3)c1 read -1.522%.
COC1CCN(C(=O)COC(C)=O)CC(=O)N(C)c2ccccc21 (configuration not stated) read -31.34%.

The first 6 entries again:

| SMILES | effect |
|---|---|
| `O=C(O)C(F)(F)F.[H][C@@]12CCN(c3cccnc3)C[C@]1([H])CN(C(=O)c1cccn1C)C2` | 2.862 |
| `O=C(Cn1cc(-c2ccccc2)cn1)NC(C1CC1)C1CC1` | 7.099 |
| `Cc1ncc(CNC(=O)NCc2c(F)cccc2OC(F)F)s1` | -65.66 |
| `Cc1ncc(CN(C)C)c(C2CCCN2c2ncccn2)n1` (configuration not stated) | -3.06 |
| `COc1cccc(-n2nnc(C(=O)N3CCN(C)CC3C)c2C)c1` (configuration not stated) | 18.04 |
| `COc1ccc(OC)c(CN(C)c2ncc(S(N)(=O)=O)s2)c1` | -1.829 |